In paper PMC3921104 one finds binding data, which are given here for 2 molecules.

Results are given in words; binding and its absence hold for the method and conditions named. In cells and extracts the contact can be indirect. A result given as binding can be weak or reduced; the word gives no strength. Sequences can lack the tags named with a protein.

For test [1], the target named is T1, flag-tagged mouse Tob1 (mouse) (UniProt Q61471).
T1 sequence: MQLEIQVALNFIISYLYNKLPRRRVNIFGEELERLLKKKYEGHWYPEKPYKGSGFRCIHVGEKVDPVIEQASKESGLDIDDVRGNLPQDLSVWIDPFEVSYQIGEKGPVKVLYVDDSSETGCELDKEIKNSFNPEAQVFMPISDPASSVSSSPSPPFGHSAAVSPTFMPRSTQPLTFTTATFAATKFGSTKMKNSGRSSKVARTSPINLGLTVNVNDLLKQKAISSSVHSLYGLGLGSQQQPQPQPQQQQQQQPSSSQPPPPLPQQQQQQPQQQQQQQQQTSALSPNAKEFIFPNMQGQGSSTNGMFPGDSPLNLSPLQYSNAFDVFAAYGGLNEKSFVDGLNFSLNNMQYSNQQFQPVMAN
In words: co-IP; HEK293T cell extracts transfected with HA-tagged CPEB3 or ApCPEB together with flag-tagged mTob1 or mTob2.

In test [2] the target is T2, flag-tagged mouse Tob2 (mouse) (UniProt Q9JM55).
T2 sequence: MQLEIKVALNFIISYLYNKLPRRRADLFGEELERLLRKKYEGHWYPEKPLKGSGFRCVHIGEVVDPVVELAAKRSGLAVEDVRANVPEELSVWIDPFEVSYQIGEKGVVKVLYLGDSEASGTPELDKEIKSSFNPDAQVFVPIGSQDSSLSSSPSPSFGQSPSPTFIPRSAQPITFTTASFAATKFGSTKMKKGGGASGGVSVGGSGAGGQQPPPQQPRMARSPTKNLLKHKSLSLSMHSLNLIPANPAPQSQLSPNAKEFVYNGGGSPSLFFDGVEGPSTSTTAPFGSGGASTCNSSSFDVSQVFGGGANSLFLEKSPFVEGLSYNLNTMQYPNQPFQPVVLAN
The description is as above.

Test [3] addresses Transducer of Erb-B2 (Tob), endogenous in adult fly heads (Drosophila melanogaster (endogenous in adult fly heads)). In words: co-IP; adult fly head lysate (1-4 mg) in 1% Igepal buffer; anti-Tob serum (preimmune as control) and Protein-A agarose; unstimulated, 10 mM tyramine, serotonin, dTrpA1 activation, LimK mutant flies.

In the case of HA-tagged Aplysia CPEB, the binding entry in test [1] and in test [2] was “binds” throughout.

B1: HA-tagged LimK, adult fly heads (enzyme, UniProt Q8IR79 1-1257)
chain: MHHQQRLRANGGRGGTGLGAGSGPVSGGHSPLCAHCRGQLLPHPEEPIVMALGQQWHCDCFRCSVCEGHLHNWYFEREGLLYCREDYYGRFGDACQQCMAVITGPVMVAGEHKFHPECFCCTACGSFIGEGESYALVERSKLYCGQCYGKRSCQPADAKARITTAGKPMHSIRLVEIPKDATPGLRVDGVALDDGCPTVRITDLFCNFFLWLTSMAEQCCGAPYRIDVNLTNLHIGDRILEVNGTPVSDSSVEQIDKLIRSNEKMLQLTVEHDPVQVCRSCSQADIQRAMSASTLILPLSTSASSVEVGRERLYKTPGEQGTKARKLRQATNASTTIPPAAGATAMTQLKEKERCSSLSKLLDEQHQAQQHSAHPQLYDLSRTQSCRVVQKPQRIFRATDLVIGEKLGEGFFGKVFKVTHRQSGEVMVLKELHRADEEAQRNFIKEVAVLRLLDHRHVLKFIGVLYKDKKLHMVTEYVAGGCLKELIHDPAQVLPWPQRVRLARDIACGMSYLHSMNIIHRDLNSMNCLVREDRSVIVADFGLARSVDAPRLPSGNMTPGGYGSGANSDAPMSPSGTLRRSKSRQRRQRYTVVGNPYWMAPEMMKGLKYDEKVDVFSFGIMLCEIIGRVEADPDFMPRNSDFSLNQQEFREKFCAQCPEPFVKVAFVCCDLNPDMRPCFETLHVWLQRLADDLAADRVPPERLLHEIETFQEWYASSEDALSPTSQRSLNNLDELVKSAVDSEISPVEKEKENMVIKPQDIPKSPHLGKDFSPSGERLRDSMRARRRQRFLGAQEERRNLTPDTESKERALKKALKKCRPFGERGYLVDLRAGAELQLEDVRDLNTYSDVDSSCDTSLNYHDVNNLPAAQEDENTVKPGKEELLEESTNKPSNQESQHHRLAIDDMRTRLNQCRSKFEHLEEASRRNFNQSQHSMKNFFKTPPVALKMFQRLEHEAAALNGGNNCPPPPPRTQRINQTPIFGRKNPPVAIVGQKLQHAESLEDLASSGVAKQLATPAPKRSKATATTKGGQSSNPPLFLPPSLNISVALNSNGNVTTTTNTNSSCPPSASDWLPKKHKLTLPLPSAQQQRTSSNHRLPMCNNKGKTLKPLPSRTGSQGIPASNCVSPTRSSRPGSPTKHLAQRHTAATAQRLTNAAATHQQQHQQQSSKTTRLNILSPEKVHRLGARLTDQKQKMREEAAATASSVGGAGCAAGTAAGSLNGHRTIGSSGTPNSAVGERRRRAAPSPPVRTHFNTRC
On to B1, for which the binding entry in test [3] was “binds”.
